The test system of the assay is BDF1 mice, P388 leukemia ip, median survival T/C. Nature of the assay: NCI In Vivo Anticancer Drug Screen. Data for tumor model P388 Leukemia (intraperitoneal) in B6D2F1 (BDF1) mice. Conditions: T/C endpoint: median survival time, higher T/C = longer survival. The procedure: The antitumor activity of compounds was measured in mice bearing transplantable tumors. Survival or tumor size were measured and the results are expressed as the measurement made in the treated group (T) divided by the measurement made in the vehicle treated control group (C). The tumor model used in this assay is P388 Leukemia (intraperitoneal) in B6D2F1 (BDF1) mice

[1] abbreviates: dose: 33.0 mg/kg/injection, schedule: Q04DX003 (ip), vehicle: saline with Tween-80.
[2] abbreviates: dose: 50.0 mg/kg/injection, schedule: Q04DX003 (ip), vehicle: saline with Tween-80.

Structures are written as SMILES. The list does not hold the whole screen: its compounds were picked by chemical class. Not every dose and run of a compound is shown. T/C is the treated group as % of the vehicle group. Where survival is the endpoint, this PubChem deposit counts one and a half times the control or more as active, and values a quarter to a half above the control carry no call in these data; other NCI protocols may use other cut-offs. Some entries show no survivor count and are marked so; the dose need not have been tolerated. Schedule codes are those of the source, read here as Q, the interval in days (D) or hours (H), X, the number of doses.

For `NC(Cc1ccc(O)c(N(CCCl)CCCl)c1)C(=O)O` (stereo not drawn), the T/C (dose: 0.05 mg/kg/injection, schedule: Q01DX010 (ip), vehicle: saline) is 245 % of control [survivor count not shown]; the T/C (dose: 0.1 mg/kg/injection, schedule: Q01DX010 (ip), vehicle: saline) is 255 % of control [survivor count not shown]; the T/C (dose: 0.2 mg/kg/injection, schedule: Q01DX010 (ip), vehicle: saline) was 300 % of control [survivor count not shown]; the T/C (dose: 0.4 mg/kg/injection, schedule: Q01DX010 (ip), vehicle: saline) is 300 % of control [survivor count not shown]; the T/C (dose: 0.66 mg/kg/injection, schedule: Q01DX010 (ip), vehicle: saline) was 300 % of control [survivor count not shown]; the T/C (dose: 1.0 mg/kg/injection, schedule: Q01DX010 (ip), vehicle: saline) was 300 % of control [survivor count not shown]. The T/C runs as follows: (dose: 1.5 mg/kg/injection, schedule: Q01DX010 (ip), vehicle: saline) 127 % of control [survivor count not shown]; (dose: 2.25 mg/kg/injection, schedule: Q01DX010 (ip), vehicle: saline) 90 % of control [survivor count not shown]; (dose: 2.0 micrograms/kg/injection, schedule: Q01DX010 (ip), vehicle: saline) 270 % of control [survivor count not shown]; (dose: 5.0 micrograms/kg/injection, schedule: Q01DX010 (ip), vehicle: saline) 295 % of control [survivor count not shown]; (dose: 10.0 micrograms/kg/injection, schedule: Q01DX010 (ip), vehicle: saline) 275 % of control [survivor count not shown]; (dose: 20.0 micrograms/kg/injection, schedule: Q01DX010 (ip), vehicle: saline) 300 % of control [survivor count not shown].

On to `ClCCNCCCl.O=C(O)/C=C\C(=O)O`, for which the T/C by setting is: (dose: 14.0 mg/kg/injection, schedule: Q01DX009 (ip), vehicle: saline) 122 % of control [survivor count not shown]; (dose: 21.0 mg/kg/injection, schedule: Q01DX009 (ip), vehicle: saline) 109 % of control [survivor count not shown]; (dose: 25.0 mg/kg/injection, schedule: Q01DX009 (ip), vehicle: saline) 120 % of control [survivor count not shown]; (dose: 33.0 mg/kg/injection, schedule: Q01DX009 (ip), vehicle: saline with Tween-80) 131 % of control [survivor count not shown]; (dose: 50.0 mg/kg/injection, schedule: Q01DX009 (ip), vehicle: saline with Tween-80) 186 % of control [survivor count not shown]; (dose: 50.0 mg/kg/injection, schedule: Q01DX009 (ip), vehicle: saline) 160 % of control [survivor count not shown]. In addition, the T/C reads like this: (dose: 66.0 mg/kg/injection, schedule: Q04DX003 (ip), vehicle: saline with Tween-80) 121 % of control [survivor count not shown]; (dose: 75.0 mg/kg/injection, schedule: Q01DX009 (ip), vehicle: saline with Tween-80) 209 % of control [survivor count not shown]; (dose: 100.0 mg/kg/injection, schedule: Q01DX009 (ip), vehicle: saline) 150 % of control [survivor count not shown]; (dose: 100.0 mg/kg/injection, schedule: Q04DX003 (ip), vehicle: saline with Tween-80) 182 % of control [survivor count not shown]; (dose: 150.0 mg/kg/injection, schedule: Q04DX003 (ip), vehicle: saline with Tween-80) 239 % of control [survivor count not shown].

With `ClCCN(CCCl)Cc1nc2cc(Cl)c(Cl)cc2[nH]1`, the T/C is 150 % of control [survivor count not shown] under setting [1]; 137 % of control [survivor count not shown] under setting [2]; 145 % of control [survivor count not shown] (dose: 75.0 mg/kg/injection, schedule: Q04DX003 (ip), vehicle: saline with Tween-80).

For `O=Nc1ccc(N(CCCl)CCCl)cc1`, the T/C by setting is: (dose: 5.2 mg/kg/injection, schedule: Q04DX003 (ip), vehicle: Klucel (hydroxypropylcellulose) (HPC)) 165 % of control [survivor count not shown]; (dose: 5.2 mg/kg/injection, schedule: Q04DX003 (ip), vehicle: saline) 128 % of control [survivor count not shown]; (dose: 8.0 mg/kg/injection, schedule: Q04DX003 (ip), vehicle: Klucel (hydroxypropylcellulose) (HPC)) 145 % of control [survivor count not shown]; (dose: 8.0 mg/kg/injection, schedule: Q04DX003 (ip), vehicle: saline) 133 % of control [survivor count not shown]; (dose: 12.0 mg/kg/injection, schedule: Q04DX003 (ip), vehicle: Klucel (hydroxypropylcellulose) (HPC)) 175 % of control [survivor count not shown]; (dose: 12.0 mg/kg/injection, schedule: Q04DX003 (ip), vehicle: saline) 180 % of control [survivor count not shown]. For the same compound, the T/C (dose: 17.0 mg/kg/injection, schedule: Q04DX003 (ip), vehicle: alcohol) is 186 % of control [survivor count not shown]; the T/C (dose: 27.0 mg/kg/injection, schedule: Q04DX003 (ip), vehicle: alcohol) was 186 % of control [survivor count not shown]; the T/C (dose: 40.0 mg/kg/injection, schedule: Q04DX003 (ip), vehicle: alcohol) was 204 % of control [survivor count not shown].

With `O=C(O)c1ccc(CN(CCCl)CCCl)cc1`, the T/C was 113 % of control [survivor count not shown] (dose: 0.78 mg/kg/injection, schedule: Q04DX003 (ip), vehicle: water); 150 % of control [survivor count not shown] (dose: 1.0 mg/kg/injection, schedule: Q01DX009 (ip), vehicle: water); 120 % of control [survivor count not shown] (dose: 1.56 mg/kg/injection, schedule: Q04DX003 (ip), vehicle: water); 166 % of control [survivor count not shown] (dose: 2.0 mg/kg/injection, schedule: Q01DX009 (ip), vehicle: water); 173 % of control [survivor count not shown] (dose: 3.12 mg/kg/injection, schedule: Q04DX003 (ip), vehicle: water); 185 % of control [survivor count not shown] (dose: 4.0 mg/kg/injection, schedule: Q01DX009 (ip), vehicle: water).

Consider `ClCCN(CCCl)CCc1ccccc1`, for which the T/C runs as follows: (dose: 2.0 mg/kg/injection, schedule: Q01DX009 (ip), vehicle: saline) 180 % of control [survivor count not shown]; (dose: 3.13 mg/kg/injection, schedule: Q01DX009 (ip), vehicle: saline) 230 % of control [survivor count not shown]; (dose: 4.6 mg/kg/injection, schedule: Q01DX009 (ip), vehicle: saline) 215 % of control [survivor count not shown].

For the compound `COc1cccc(N(CCCl)CCCl)c1OC`, the T/C by setting is: (dose: 33.0 mg/kg/injection, schedule: Q04DX002 (ip), vehicle: saline with Tween-80) 129 % of control [survivor count not shown]; (dose: 50.0 mg/kg/injection, schedule: Q04DX002 (ip), vehicle: saline with Tween-80) 162 % of control [survivor count not shown]; (dose: 75.0 mg/kg/injection, schedule: Q04DX002 (ip), vehicle: saline with Tween-80) 175 % of control [survivor count not shown].

In the case of `Cc1cc(C)c2nc(CN(CCCl)CCCl)[nH]c2c1`, the T/C runs as follows: (dose: 6.1 mg/kg/injection, schedule: Q04DX003 (ip), vehicle: Klucel (hydroxypropylcellulose) (HPC)) 120 % of control [survivor count not shown]; (dose: 9.2 mg/kg/injection, schedule: Q04DX003 (ip), vehicle: Klucel (hydroxypropylcellulose) (HPC)) 112 % of control [survivor count not shown]; (dose: 14.0 mg/kg/injection, schedule: Q04DX003 (ip), vehicle: saline with Tween-80) 170 % of control [survivor count not shown]; (dose: 21.0 mg/kg/injection, schedule: Q04DX003 (ip), vehicle: saline with Tween-80) 170 % of control [survivor count not shown]; under setting [1], 168 % of control [survivor count not shown]; under setting [2], 204 % of control [survivor count not shown].

The values are drawn from PubChem BioAssay AID328 (DTP/NCI, 2004).
